Taken from: PubChem BioAssay AID504784 (Drosophila RNAi Screening Center, 2011)
Screen: 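Fly genes whose silencing alters how much lipid cells keep in droplets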 (primary screen). Cells: Drosophila Kc167 embryonic cells. Reagent: long dsRNA against Drosophila genes, about 250 ng dsRNA per well. Timing: 4 days. Treatment: cells fed 400 µM oleic acid bound to BSA. Read-out: 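Cells imaged and segmented; ratio of lipid droplet area to nuclear area, log-transformed, then normalised as a B-score over the screen; higher means more stored lipid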. Direction: droplet/nuclear area B-score: higher = more stored lipid (overstorage).
The screen tested about 17,000 reagents; this is an unselected part of those with a known target gene and a result. 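Each column is one replicate's B-score; the combined score over replicates was not deposited, so single values may mislead.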 A plus sign joins genes that one reagent is predicted to hit. Not all columns of the deposit are shown.

Gene	dsRNA	droplet/nuclear area B-score, replicate 1	droplet/nuclear area B-score, replicate 2
CG17168	DRSC20904	0.0123	-2.99
CG5011	DRSC00039	-0.356	0.498
CG5011	DRSC00674	0.179	-2.52
Nha2	DRSC14689	-1.29	-0.967
Nha2	DRSC15619	0.00686	-0.00824
Nha2	DRSC15623	0.142	-0.512
Parp16	DRSC06597	0.0585	0.459
CG13323	DRSC06360	-1.87	0.443
Efr	DRSC18322	0.0202	0.803
ND-51	DRSC03145	2.06	7.61
CG5550	DRSC06943	0.0726	0.265
CG33258	DRSC09415	0.544	0.552
CG4658	DRSC02768	-0.255	0.584
SPR	DRSC17886	-1.35	-1.33
SPR	DRSC18114	-1.14	-0.147
SPR	DRSC21557	-0.0153	-0.207
DAAM	DRSC18479	-0.695	-0.0138
Rpn10	DRSC11876	0.635	-0.0127
Obp56c	DRSC06552	0.504	0.109
Obp56c	DRSC22325	0.129	-0.0228
Tsp42Ek	DRSC06187	0.571	2.15
MtnA	DRSC21588	0.0265	-1.38
CG14505	DRSC06476	-0.031	0.249
Ak2	DRSC04043	-0.845	-1.2
LysRS	DRSC17824	-0.897	-1.1
Mst33A	DRSC03371	-0.756	1.9
hbt	DRSC02503	1.25	3.16
hbt	DRSC23270	-0.000145	0.362
Gk2	DRSC08610	-0.0592	0.951
CG6937	DRSC16140	0.885	0.485
alpha-Man-IIa	DRSC15393	0.813	0.0407
CG9588	DRSC16504	-0.00134	-1.4
CG12507	DRSC19463	-0.417	-0.547
CG7367	DRSC03049	-0.00553	1.03
Arglu1	DRSC02909	-0.335	-0.69
Dim1	DRSC00563	-1.04	-2.11
CG7992	DRSC20070	0.949	-0.13
swi2	DRSC06457	1.22	0.236
CG8292	DRSC03082	1.6	0.423
mthl15	DRSC01120	1.26	1.5
CG6005	DRSC15945	-0.774	4.45
CG4783	DRSC15644	0.0478	-0.439
Hasp	DRSC02022	0.614	1.33
sowah	DRSC09186	1.05	-0.12
sowah	DRSC09758	-0.327	1.42
bark	DRSC00635	-0.193	-0.0183
CG13177	DRSC06303		-0.25
Snmp1	DRSC16168	-0.175	-0.52
CG4789	DRSC19918	1.36	-0.748
Khc	DRSC07448	-0.709	-0.249
Targ	DRSC06206	0.907	-0.712
CG31211	DRSC14953	-0.078	2.48
CG31211	DRSC15344	-0.637	-1.07
CG31211	DRSC21478	-0.917	-0.154
Nup160	DRSC02774	-2.17	-1.39
hook	DRSC03545	0.0641	0.524
CG14717	DRSC14940	3.6	-0.789
Rpp20 + CG33932	DRSC19467	0.892	-0.321
CG9231	DRSC11054	-0.981	0.306
Cpr66D	DRSC10640	-0.0207	1.4
Cpr66D	DRSC10646	0.868	1.89
Cpr66D	DRSC23178	0.0151	0.0173
Art4	DRSC15779	0.187	-0.676
peng	DRSC20583	1.07	0.0947
Mccc1	DRSC15417	-0.278	14.1
CG15202	DRSC19649	0.0982	-0.111
Zyx	DRSC17186	0.967	2.14
Alp8	DRSC04353	-0.00885	0.197
CG13557	DRSC04195	-2.6	0.0519
CG15143	DRSC02444	0.139	-0.386
CG32100	DRSC09725	1.07	0.672
CG32100	DRSC10331	-1.12	-0.17
SmE	DRSC02680	-0.231	1.75
CG31204	DRSC15106	0.47	1.48
CG6023	DRSC19970	0.529	-0.397
CG18231	DRSC10307	-0.567	-0.0686
CG8728	DRSC07251	0.603	0.085
Ubc2	DRSC01137	-0.217	-0.797
Ubc2	DRSC03468	-3.98	-2.95
spict	DRSC02157	-0.0687	-2.33
Trxr2	DRSC11900	-0.23	
Taf10b	DRSC00792	0.61	0.0176
CG15120	DRSC06542	-1.97	3.38

Part of the list above, reformatted:
{"Gene": "hbt", "dsRNA": "DRSC23270", "droplet/nuclear area B-score, replicate 1": -0.000145, "droplet/nuclear area B-score, replicate 2": 0.362}
{"Gene": "Gk2", "dsRNA": "DRSC08610", "droplet/nuclear area B-score, replicate 1": -0.0592, "droplet/nuclear area B-score, replicate 2": 0.951}
{"Gene": "CG6937", "dsRNA": "DRSC16140", "droplet/nuclear area B-score, replicate 1": 0.885, "droplet/nuclear area B-score, replicate 2": 0.485}
{"Gene": "alpha-Man-IIa", "dsRNA": "DRSC15393", "droplet/nuclear area B-score, replicate 1": 0.813, "droplet/nuclear area B-score, replicate 2": 0.0407}
{"Gene": "CG9588", "dsRNA": "DRSC16504", "droplet/nuclear area B-score, replicate 1": -0.00134, "droplet/nuclear area B-score, replicate 2": -1.4}
{"Gene": "CG12507", "dsRNA": "DRSC19463", "droplet/nuclear area B-score, replicate 1": -0.417, "droplet/nuclear area B-score, replicate 2": -0.547}
{"Gene": "CG7367", "dsRNA": "DRSC03049", "droplet/nuclear area B-score, replicate 1": -0.00553, "droplet/nuclear area B-score, replicate 2": 1.03}
{"Gene": "Arglu1", "dsRNA": "DRSC02909", "droplet/nuclear area B-score, replicate 1": -0.335, "droplet/nuclear area B-score, replicate 2": -0.69}
{"Gene": "Dim1", "dsRNA": "DRSC00563", "droplet/nuclear area B-score, replicate 1": -1.04, "droplet/nuclear area B-score, replicate 2": -2.11}
{"Gene": "CG7992", "dsRNA": "DRSC20070", "droplet/nuclear area B-score, replicate 1": 0.949, "droplet/nuclear area B-score, replicate 2": -0.13}
{"Gene": "swi2", "dsRNA": "DRSC06457", "droplet/nuclear area B-score, replicate 1": 1.22, "droplet/nuclear area B-score, replicate 2": 0.236}
